In paper PMC5992723 one finds binding data, which are given here for two substances.

Chains of the proteins cited; added tags and fusions are not shown. Lines headed by an entry give the natural chain unless they say otherwise; changes in a name come on top.
UniProt P05556: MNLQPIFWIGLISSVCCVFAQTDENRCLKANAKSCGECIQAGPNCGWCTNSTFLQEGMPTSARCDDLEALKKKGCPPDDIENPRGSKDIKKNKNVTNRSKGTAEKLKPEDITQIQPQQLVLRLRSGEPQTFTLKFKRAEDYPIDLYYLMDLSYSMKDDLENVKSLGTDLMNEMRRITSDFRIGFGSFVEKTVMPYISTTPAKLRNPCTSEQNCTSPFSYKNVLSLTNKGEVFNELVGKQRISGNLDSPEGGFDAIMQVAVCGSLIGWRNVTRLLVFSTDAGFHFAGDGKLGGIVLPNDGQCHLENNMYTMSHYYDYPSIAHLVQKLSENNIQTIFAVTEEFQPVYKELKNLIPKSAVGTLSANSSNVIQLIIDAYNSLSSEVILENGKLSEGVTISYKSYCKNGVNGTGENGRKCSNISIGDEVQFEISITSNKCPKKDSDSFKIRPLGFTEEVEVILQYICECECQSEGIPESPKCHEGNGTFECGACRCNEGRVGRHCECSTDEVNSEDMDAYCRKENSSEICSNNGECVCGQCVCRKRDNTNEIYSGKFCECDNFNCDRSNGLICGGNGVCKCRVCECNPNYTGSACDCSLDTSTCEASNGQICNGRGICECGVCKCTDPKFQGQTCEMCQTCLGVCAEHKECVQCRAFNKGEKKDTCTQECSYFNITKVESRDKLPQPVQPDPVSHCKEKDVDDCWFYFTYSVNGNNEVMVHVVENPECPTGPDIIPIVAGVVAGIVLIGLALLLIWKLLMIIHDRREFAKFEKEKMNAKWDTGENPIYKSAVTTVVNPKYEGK
UniProt P35613: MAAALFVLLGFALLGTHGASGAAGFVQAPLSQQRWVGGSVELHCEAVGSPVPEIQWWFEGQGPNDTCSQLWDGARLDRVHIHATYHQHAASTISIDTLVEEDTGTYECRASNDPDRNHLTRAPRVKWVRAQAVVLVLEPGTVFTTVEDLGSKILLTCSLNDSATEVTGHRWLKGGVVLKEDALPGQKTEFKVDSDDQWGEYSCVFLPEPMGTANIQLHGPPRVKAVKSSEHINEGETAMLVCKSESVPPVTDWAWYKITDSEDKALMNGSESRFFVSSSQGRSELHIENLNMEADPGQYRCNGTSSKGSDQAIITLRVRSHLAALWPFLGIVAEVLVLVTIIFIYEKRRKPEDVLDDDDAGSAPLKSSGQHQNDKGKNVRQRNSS

In assay [1] the target is integrin β1 (human (endogenous in Hep-2)) (UniProt P05556). In words: co-IP; Hep-2 cell lysates incubated with anti-integrin β1 or anti-CD147 antibody overnight at 4 °C, protein A/G agarose beads 4 h at 4 °C, washed three times, western blot; endogenous proteins. Background: A western blot detects proteins with antibodies after separation by electrophoresis.
Assay [2] has as its target CD147 (human (endogenous in Hep-2)) (UniProt P35613). The description is as above.

Results are given in words; binding and its absence hold for the method and conditions named. In cells and extracts the contact can be indirect. Binding can be weak; no strength is given.

As for CD147 (from UniProt P35613-2), in assay [1], the binding entry is “binds”. Take “integrin β1 (from UniProt P05556 21-798) (receptor)”: the binding entry in assay [2] was “binds”.
